# Measurements as given in paper PMC3377984 (Journal of Molecular Neuroscience, 2012).
# Assay: Caco-2 bidirectional permeability assay
# Assay type: in vitro ADME
# Details: human
smiles,measurement,value
"CC(C)NCC(O)COc1ccc(CC(N)=O)cc1 (stereo not shown) [Atenolol control, Atenolol]",Papp A→B at 5 µM,0.23 ×10⁻⁶ cm/s
